Laboratory results taken from ChEMBL document CHEMBL4261608, “Design, synthesis and anti-mycobacterial activity evaluation of benzofuran-isatin hybrids” (Eur J Med Chem, 2018).
≈ marks a conversion by molar mass, not a printed value.

Test system: Mycobacterium tuberculosis
Test: Antimycobacterial activity against Mycobacterium tuberculosis H37Rv incubated for 7 days by rapid direct susceptibility test
Type: functional
Conditions: 168 h
Procedure, shortened: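 Two-fold dilutions of compound mixed with MTB suspension holding 4×10^-3 mg cells (H37Rv, or MDR strain resistant to ethambutol, INH and RIF) in 48-well plates. Incubation at 37 °C in a wet box. Cells in each well observed by continuous visual high-magnification system, re-read 7 days later. MIC taken as lowest concentration inhibiting visible growth.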

CO[C@H]1/C=C/O[C@@]2(C)Oc3c(C)c(O)c4c(O)c(c(/C=N/N5CCN(C)CC5)c(O)c4c3C2=O)NC(=O)/C(C)=C\C=C\[C@H](C)[C@H](O)[C@@H](C)[C@@H](O)[C@@H](C)[C@H](OC(C)=O)[C@@H]1C [RIFAMPIN]
MIC: 0.5 µg/mL (≈ 0.608 µM)
